Among the data in article PMC4861429, “Molecular Insights into Toluene Sensing in the TodS/TodT Signal Transduction System” (The Journal of Biological Chemistry, 2016) are binding values, retold here.

Sequences of proteins named here, by UniProt entry; tags and fusion partners are left off. Residues count along the entry.
UniProt A5W4E3, residues 43-168: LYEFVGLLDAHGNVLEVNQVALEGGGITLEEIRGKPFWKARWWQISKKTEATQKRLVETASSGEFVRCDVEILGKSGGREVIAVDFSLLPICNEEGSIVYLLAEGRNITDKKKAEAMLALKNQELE

Results are given in words; binding and its absence hold for the method and conditions named.

The target of this assay is TodS PAS1 (residues 43–168) (Pseudomonas putida F1) (UniProt A5W4E3). The assay is described as follows: crystal structure; PAS1(43–168) apo, with 1,2,4-TMB, and SeMet L71M with toluene; sitting or hanging drop, 2.8–3.0 M ammonium phosphate, 0.1 M Tris-HCl pH 8.0–8.5, 21 °C; two molecules in the asymmetric unit; both purified.

“TodS PAS1 (residues 43–168) (from UniProt A5W4E3 43-168) (domain or fragment)”: the binding result is “no binding”.
